Sequences of proteins named here, by UniProt entry; tags and fusion partners are left off.
UniProt Q96T51: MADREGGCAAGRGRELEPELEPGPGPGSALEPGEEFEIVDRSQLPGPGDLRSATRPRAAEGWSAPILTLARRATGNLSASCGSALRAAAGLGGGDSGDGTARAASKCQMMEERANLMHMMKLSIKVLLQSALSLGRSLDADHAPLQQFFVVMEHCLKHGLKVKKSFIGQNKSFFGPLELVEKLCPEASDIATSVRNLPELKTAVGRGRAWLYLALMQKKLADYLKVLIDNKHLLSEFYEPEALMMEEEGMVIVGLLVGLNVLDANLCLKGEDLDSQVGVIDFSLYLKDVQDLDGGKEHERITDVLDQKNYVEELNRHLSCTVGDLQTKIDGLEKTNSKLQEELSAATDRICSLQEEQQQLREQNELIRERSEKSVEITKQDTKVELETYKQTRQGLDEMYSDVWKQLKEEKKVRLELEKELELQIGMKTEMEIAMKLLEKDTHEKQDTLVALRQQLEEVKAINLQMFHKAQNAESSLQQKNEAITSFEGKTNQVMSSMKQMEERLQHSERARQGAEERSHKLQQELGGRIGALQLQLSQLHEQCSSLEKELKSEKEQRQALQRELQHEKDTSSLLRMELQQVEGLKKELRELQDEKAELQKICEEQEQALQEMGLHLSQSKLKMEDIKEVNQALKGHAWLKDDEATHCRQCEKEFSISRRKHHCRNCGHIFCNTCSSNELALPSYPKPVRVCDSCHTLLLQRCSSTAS
UniProt Q14204: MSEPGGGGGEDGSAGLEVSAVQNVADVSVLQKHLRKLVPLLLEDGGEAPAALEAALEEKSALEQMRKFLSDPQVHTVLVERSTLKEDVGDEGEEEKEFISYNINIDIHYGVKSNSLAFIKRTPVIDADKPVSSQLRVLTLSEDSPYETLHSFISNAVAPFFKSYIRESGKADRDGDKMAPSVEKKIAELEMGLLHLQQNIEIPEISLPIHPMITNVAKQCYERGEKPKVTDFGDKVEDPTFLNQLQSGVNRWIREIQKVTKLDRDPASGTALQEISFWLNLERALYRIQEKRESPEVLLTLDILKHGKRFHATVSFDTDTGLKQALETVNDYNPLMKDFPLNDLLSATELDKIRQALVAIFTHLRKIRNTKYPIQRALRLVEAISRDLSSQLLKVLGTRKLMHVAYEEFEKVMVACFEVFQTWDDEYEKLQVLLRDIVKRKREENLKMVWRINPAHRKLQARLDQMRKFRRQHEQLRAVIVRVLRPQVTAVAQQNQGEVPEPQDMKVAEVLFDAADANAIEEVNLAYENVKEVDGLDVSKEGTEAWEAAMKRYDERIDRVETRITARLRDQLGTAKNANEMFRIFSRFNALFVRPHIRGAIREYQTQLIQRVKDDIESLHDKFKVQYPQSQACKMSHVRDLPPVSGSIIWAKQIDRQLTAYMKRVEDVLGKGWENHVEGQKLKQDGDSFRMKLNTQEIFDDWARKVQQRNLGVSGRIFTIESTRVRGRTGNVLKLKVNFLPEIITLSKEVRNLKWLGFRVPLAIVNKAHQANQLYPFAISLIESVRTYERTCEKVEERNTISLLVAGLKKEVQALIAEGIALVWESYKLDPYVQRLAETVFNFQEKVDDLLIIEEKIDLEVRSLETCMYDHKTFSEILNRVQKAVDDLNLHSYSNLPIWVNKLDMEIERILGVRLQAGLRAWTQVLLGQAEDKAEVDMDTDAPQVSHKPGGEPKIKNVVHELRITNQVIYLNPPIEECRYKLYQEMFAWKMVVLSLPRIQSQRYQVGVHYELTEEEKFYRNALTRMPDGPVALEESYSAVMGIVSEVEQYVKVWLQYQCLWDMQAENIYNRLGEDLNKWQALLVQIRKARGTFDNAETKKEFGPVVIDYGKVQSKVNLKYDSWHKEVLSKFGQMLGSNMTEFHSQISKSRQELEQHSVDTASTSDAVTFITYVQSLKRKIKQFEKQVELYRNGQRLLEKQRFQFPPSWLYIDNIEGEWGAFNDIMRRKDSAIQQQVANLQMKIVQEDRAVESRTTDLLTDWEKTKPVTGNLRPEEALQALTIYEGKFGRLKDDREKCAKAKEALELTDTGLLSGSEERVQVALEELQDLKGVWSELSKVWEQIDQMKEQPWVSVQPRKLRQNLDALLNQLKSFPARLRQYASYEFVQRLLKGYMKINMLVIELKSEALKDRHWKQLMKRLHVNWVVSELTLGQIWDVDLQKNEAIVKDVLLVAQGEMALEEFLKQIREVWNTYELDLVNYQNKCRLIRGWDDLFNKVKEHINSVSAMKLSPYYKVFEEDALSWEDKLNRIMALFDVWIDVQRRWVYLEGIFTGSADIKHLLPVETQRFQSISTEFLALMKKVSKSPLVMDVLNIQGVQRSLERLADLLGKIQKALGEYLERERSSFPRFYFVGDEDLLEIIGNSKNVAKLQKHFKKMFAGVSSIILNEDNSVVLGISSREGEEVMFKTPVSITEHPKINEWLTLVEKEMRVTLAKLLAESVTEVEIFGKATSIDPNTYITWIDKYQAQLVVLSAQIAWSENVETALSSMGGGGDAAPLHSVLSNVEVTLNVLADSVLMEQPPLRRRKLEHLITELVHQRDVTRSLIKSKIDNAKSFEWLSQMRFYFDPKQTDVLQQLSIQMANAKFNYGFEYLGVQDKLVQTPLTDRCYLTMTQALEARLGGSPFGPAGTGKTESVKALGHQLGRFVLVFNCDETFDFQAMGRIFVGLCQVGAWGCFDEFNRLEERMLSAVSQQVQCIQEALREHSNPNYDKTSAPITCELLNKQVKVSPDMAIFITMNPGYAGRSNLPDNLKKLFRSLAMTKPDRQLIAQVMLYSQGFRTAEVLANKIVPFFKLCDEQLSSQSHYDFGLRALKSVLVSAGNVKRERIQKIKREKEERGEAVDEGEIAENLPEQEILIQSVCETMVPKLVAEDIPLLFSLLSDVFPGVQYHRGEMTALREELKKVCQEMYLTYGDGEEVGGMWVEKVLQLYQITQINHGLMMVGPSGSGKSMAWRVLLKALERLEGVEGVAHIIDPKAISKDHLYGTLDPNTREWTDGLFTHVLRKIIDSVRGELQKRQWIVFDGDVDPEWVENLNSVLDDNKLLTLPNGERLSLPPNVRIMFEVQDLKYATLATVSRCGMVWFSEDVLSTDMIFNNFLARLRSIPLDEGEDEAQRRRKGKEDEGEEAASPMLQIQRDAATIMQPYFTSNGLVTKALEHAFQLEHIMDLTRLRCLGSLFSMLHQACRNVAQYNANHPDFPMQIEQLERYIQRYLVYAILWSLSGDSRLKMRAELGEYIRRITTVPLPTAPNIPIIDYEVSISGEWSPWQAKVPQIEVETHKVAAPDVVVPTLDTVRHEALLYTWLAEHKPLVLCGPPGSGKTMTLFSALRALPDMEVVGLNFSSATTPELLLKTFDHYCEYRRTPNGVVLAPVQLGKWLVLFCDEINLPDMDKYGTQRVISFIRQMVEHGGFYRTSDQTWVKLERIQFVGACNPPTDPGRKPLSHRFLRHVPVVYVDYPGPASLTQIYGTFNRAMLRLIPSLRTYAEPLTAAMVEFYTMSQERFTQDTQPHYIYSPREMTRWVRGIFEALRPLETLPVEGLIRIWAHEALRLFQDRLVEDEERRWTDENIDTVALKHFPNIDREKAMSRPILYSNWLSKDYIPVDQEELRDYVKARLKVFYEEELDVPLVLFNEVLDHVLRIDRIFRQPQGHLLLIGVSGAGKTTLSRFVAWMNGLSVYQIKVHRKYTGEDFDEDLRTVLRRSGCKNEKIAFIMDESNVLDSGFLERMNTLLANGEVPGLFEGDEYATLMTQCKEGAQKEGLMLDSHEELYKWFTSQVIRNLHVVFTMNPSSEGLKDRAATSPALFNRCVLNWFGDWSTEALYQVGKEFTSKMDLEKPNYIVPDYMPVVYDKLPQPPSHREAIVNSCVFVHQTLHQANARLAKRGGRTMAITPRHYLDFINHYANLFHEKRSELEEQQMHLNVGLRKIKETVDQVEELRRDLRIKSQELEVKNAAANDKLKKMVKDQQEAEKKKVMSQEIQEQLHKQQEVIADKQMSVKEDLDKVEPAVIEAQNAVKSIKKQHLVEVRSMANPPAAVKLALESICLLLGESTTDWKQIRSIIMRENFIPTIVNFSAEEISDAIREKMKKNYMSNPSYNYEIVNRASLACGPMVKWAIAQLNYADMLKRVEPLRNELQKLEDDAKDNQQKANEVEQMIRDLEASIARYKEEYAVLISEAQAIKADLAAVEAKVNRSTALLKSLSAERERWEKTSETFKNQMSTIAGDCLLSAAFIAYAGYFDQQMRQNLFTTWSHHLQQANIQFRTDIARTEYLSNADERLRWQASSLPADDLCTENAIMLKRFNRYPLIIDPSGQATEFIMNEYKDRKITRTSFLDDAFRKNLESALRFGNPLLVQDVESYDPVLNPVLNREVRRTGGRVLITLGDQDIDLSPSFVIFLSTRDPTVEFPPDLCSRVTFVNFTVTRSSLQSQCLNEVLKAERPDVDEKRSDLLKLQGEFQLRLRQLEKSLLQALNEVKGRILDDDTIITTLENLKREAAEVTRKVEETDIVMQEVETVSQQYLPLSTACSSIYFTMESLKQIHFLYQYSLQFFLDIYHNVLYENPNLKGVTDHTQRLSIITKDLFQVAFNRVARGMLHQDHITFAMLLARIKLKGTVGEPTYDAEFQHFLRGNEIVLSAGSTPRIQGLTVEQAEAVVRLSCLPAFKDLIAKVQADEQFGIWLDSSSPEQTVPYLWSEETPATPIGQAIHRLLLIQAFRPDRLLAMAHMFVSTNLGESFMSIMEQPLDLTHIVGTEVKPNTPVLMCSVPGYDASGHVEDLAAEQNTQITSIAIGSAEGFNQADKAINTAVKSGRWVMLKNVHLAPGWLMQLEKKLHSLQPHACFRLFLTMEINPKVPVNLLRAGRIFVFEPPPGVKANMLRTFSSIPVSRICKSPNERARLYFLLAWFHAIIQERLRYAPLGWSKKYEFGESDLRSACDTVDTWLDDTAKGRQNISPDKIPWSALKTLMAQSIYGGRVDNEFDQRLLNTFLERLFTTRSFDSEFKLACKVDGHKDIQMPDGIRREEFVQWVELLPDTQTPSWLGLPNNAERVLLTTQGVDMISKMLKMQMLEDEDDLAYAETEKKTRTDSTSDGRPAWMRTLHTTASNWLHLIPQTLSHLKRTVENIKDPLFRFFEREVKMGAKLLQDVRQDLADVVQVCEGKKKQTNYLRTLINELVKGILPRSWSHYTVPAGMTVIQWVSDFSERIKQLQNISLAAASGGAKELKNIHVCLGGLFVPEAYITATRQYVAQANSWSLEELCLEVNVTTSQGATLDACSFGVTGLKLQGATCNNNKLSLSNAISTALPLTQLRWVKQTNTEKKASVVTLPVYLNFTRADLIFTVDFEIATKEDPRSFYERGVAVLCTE
UniProt Q9Y6G9: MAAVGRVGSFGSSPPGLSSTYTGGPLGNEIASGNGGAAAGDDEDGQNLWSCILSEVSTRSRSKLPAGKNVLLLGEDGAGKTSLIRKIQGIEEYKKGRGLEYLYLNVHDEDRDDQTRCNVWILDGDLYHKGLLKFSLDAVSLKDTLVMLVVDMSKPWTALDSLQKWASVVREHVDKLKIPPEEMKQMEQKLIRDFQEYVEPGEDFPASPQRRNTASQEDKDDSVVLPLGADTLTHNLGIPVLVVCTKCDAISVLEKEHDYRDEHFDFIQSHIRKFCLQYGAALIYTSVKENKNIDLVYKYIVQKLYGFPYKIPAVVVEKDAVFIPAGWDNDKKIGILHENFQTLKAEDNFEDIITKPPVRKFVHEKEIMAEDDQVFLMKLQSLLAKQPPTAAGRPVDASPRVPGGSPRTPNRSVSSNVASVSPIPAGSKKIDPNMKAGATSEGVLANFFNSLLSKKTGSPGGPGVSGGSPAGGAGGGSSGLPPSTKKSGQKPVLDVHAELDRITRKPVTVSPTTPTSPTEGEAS
UniProt Q13561: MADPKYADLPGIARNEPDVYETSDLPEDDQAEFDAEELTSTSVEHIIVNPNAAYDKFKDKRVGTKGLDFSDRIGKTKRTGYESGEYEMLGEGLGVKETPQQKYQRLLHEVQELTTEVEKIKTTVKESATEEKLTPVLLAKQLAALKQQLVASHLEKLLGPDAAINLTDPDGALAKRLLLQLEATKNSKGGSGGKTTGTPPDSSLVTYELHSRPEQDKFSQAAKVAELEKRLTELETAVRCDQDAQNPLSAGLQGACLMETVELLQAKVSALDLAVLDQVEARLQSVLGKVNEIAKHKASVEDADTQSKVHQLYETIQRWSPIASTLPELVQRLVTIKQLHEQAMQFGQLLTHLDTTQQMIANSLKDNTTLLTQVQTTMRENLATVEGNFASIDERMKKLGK

According to PMC9597352:

Biological target: TAP-tagged RUFY1 (longer isoform) (human) (UniProt Q96T51)
Assay: affinity purification with mass spectrometry; tandem affinity purification (streptavidin, then calmodulin resin) of TAP-RUFY1 from about 50 million stably expressing HEK293T cells; hits filtered with CRAPOME

Row | binding | Substance
1 | binds | Dynein heavy chain (DHC) (from UniProt Q14204 1-4646)
2 | binds | dynein light intermediate chain 1 (LIC1), endogenous (from UniProt Q9Y6G9 1-523)
3 | binds | dynein light intermediate chain 2 (LIC2) (from UniProt O43237 1-492)
4 | binds | p50 (dynamitin) (from UniProt Q13561 1-401)
5 | binds | p150^glued (dynactin) (from UniProt Q14203-1 1-1278)

Results are given in words; binding and its absence hold for the method and conditions named. In cells and extracts the contact can be indirect. A yes stands for co-enrichment or nearness to the bait. Other partners may have been found.
